Results are given in words; binding and its absence hold for the method and conditions named. Binding seen in cells or lysates may run through a third protein. Some binding calls cover weakened binding; strength is not graded here.

The experiment deals with T1, Nucleosome assembly protein 1-like 1 (human (endogenous in Hep-G2 and Hep-3B)) (UniProt P55209).
T1 sequence: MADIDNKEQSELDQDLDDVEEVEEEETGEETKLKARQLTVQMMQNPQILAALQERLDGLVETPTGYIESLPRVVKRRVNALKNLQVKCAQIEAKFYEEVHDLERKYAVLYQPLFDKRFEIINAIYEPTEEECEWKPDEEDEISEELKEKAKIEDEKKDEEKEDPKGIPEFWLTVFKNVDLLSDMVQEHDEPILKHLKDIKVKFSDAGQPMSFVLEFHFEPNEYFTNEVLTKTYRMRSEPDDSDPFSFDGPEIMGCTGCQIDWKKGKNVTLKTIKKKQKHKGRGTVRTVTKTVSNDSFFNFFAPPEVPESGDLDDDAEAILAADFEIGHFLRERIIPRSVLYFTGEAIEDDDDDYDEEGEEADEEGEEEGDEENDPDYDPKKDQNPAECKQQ
Briefly: co-IP; immunoprecipitation with anti-NAP1L1 or anti-UBE2O antibody in Hep-G2 and Hep-3B cells, detection by western blot. In general terms: Immunoblotting shows a protein as a band on a membrane.

B1: Ubiquitin-conjugating enzyme E2O (enzyme, UniProt Q9C0C9 1-1292)
chain: MADPAAPTPAAPAPAQAPAPAPEAVPAPAAAPVPAPAPASDSASGPSSDSGPEAGSQRLLFSHDLVSGRYRGSVHFGLVRLIHGEDSDSEGEEEGRGSSGCSEAGGAGHEEGRASPLRRGYVRVQWYPEGVKQHVKETKLKLEDRSVVPRDVVRHMRSTDSQCGTVIDVNIDCAVKLIGTNCIIYPVNSKDLQHIWPFMYGDYIAYDCWLGKVYDLKNQIILKLSNGARCSMNTEDGAKLYDVCPHVSDSGLFFDDSYGFYPGQVLIGPAKIFSSVQWLSGVKPVLSTKSKFRVVVEEVQVVELKVTWITKSFCPGGTDSVSPPPSVITQENLGRVKRLGCFDHAQRQLGERCLYVFPAKVEPAKIAWECPEKNCAQGEGSMAKKVKRLLKKQVVRIMSCSPDTQCSRDHSMEDPDKKGESKTKSEAESASPEETPDGSASPVEMQDEGAEEPHEAGEQLPPFLLKEGRDDRLHSAEQDADDEAADDTDDTSSVTSSASSTTSSQSGSGTSRKKSIPLSIKNLKRKHKRKKNKITRDFKPGDRVAVEVVTTMTSADVMWQDGSVECNIRSNDLFPVHHLDNNEFCPGDFVVDKRVQSCPDPAVYGVVQSGDHIGRTCMVKWFKLRPSGDDVELIGEEEDVSVYDIADHPDFRFRTTDIVIRIGNTEDGAPHKEDEPSVGQVARVDVSSKVEVVWADNSKTIILPQHLYNIESEIEESDYDSVEGSTSGASSDEWEDDSDSWETDNGLVEDEHPKIEEPPIPPLEQPVAPEDKGVVISEEAATAAVQGAVAMAAPMAGLMEKAGKDGPPKSFRELKEAIKILESLKNMTVEQLLTGSPTSPTVEPEKPTREKKFLDDIKKLQENLKKTLDNVAIVEEEKMEAVPDVERKEDKPEGQSPVKAEWPSETPVLCQQCGGKPGVTFTSAKGEVFSVLEFAPSNHSFKKIEFQPPEAKKFFSTVRKEMALLATSLPEGIMVKTFEDRMDLFSALIKGPTRTPYEDGLYLFDIQLPNIYPAVPPHFCYLSQCSGRLNPNLYDNGKVCVSLLGTWIGKGTERWTSKSSLLQVLISIQGLILVNEPYYNEAGFDSDRGLQEGYENSRCYNEMALIRVVQSMTQLVRRPPEVFEQEIRQHFSTGGWRLVNRIESWLETHALLEKAQALPNGVPKASSSPEPPAVAELSDSGQQEPEDGGPAPGEASQGSDSEGGAQGLASASRDHTDQTSETAPDASVPPSVKPKKRRKSYRSFLPEKSGYPDIGFPLFPLSKGFIKSIRGVLTQFRAALLEAGMPECTEDK
Consider B1, for which the binding result is given as “binds”.

The values are drawn from paper PMC11137954.
